Paper PMC7819943, “Rice protein-binding microarrays: a tool to detect cis-acting elements near promoter regions in rice”
The list shows a part of the results.

Sequences of proteins named here, by UniProt entry; tags and fusion partners are left off.
UniProt Q0JBA9, entry or part of it: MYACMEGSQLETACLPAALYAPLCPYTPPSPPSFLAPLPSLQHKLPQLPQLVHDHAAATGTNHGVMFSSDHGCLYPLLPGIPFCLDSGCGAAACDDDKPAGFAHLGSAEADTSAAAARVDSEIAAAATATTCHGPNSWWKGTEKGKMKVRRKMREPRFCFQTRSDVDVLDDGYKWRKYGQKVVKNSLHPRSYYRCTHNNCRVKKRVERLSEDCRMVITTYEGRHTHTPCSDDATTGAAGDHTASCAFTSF

Biological target: OsWRKY34 (Oryza sativa, UniProt Q0JBA9 1-250)
Experiment: protein-binding microarray (RPBM); PBS, 2% BSA, 51.3 ng/ul salmon testes DNA, 50 uM zinc acetate, 200 nM TF, 25 C, 1 h; high values mean tight binding
Conditions: protein: recombinant; tags: N-terminal polyhistidine and DsRed monomer fusion (pET32a); label: CyDye5-dUTP incorporated in the synthesized complementary strand; 3' TTTTT single-stranded linker to array surface; dsDNA, one strand shown
In short: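 A custom Agilent array was converted to double-stranded form by primer extension with Cy5-dUTP and blocked with 2% BSA. Protein at 200 nM in PBS with 2% BSA, salmon testes DNA and 50 µM zinc acetate was applied for 1 h at 25 °C, followed by washing. The proteins were polyhistidine–DsRed N-terminal fusions of transcription factors, expressed in E. coli BL21-CodonPlus and Ni–NTA-purified. The binding signal is per-feature fluorescence intensity (arbitrary units) from an Axon 4000B scanner.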

Sequence | binding signal
CGGTTGTTCTTGCATGTTCTTGACGTTTTCTTTTGAGGTACGGAGTCACCTAGTGCAG | 12400 fluorescence intensity (a.u.)
ACTCCTACAGTAGTGACTTGAGTAGCGCTTCTTTTTTCCACGGAGTCACCTAGTGCAG | 9440 fluorescence intensity (a.u.)
GGTTGGTGGCGGTGGGCCGGTGGCGGCTCGGTGGCGGAGCCGGAGTCACCTAGTGCAG | 10200 fluorescence intensity (a.u.)
ATTCTTTTCATATCATTTGATTCATTGTTAAATATACTTTCGGAGTCACCTAGTGCAG | 9070 fluorescence intensity (a.u.)
GTGTCTATTGCCGTCCTTGACTCTTGCGTGCTCCTCGGATCGGAGTCACCTAGTGCAG | 9980 fluorescence intensity (a.u.)
CCGCTTGTATTTCTTTCGTTTAACTTCGTTCTCTCCTCTCCGGAGTCACCTAGTGCAG | 12700 fluorescence intensity (a.u.)
AACAACAATTCTCTCTCTTGCTCACATTTCCCTTATCAAACGGAGTCACCTAGTGCAG | 8460 fluorescence intensity (a.u.)
AACCAAACCAAATTGCACTTCCACCGGTTTACTGTACCCGCGGAGTCACCTAGTGCAG | 8320 fluorescence intensity (a.u.)
GTCACCATTCTCCTCTTGCAATTTCACCACCACCGCCACGCGGAGTCACCTAGTGCAG | 8460 fluorescence intensity (a.u.)
AACCCCACTTGTTACTTCTATTGATTCAATCAACATATTTCGGAGTCACCTAGTGCAG | 9010 fluorescence intensity (a.u.)
TTCCATCTTCTTCCTTTCTTCCCAACACCAACCGCATCATCGGAGTCACCTAGTGCAG | 8560 fluorescence intensity (a.u.)
TTGGGTCATCTCTTCTCTTGTTTGATGTGTTCAACTTGTCCGGAGTCACCTAGTGCAG | 8490 fluorescence intensity (a.u.)
CTTACTCTCTCCGTCTCTAAATATTTGACGCCGTTGACTTCGGAGTCACCTAGTGCAG | 12900 fluorescence intensity (a.u.)
TGGTCCAGTCATTCATCTATGCACGTACATTAACTCCTTCCGGAGTCACCTAGTGCAG | 13200 fluorescence intensity (a.u.)
GTATGATTGATCTTCTACGTCCATTATAATTACCACATTGCGGAGTCACCTAGTGCAG | 8090 fluorescence intensity (a.u.)
CCTCGGATCACCACTGTCTTCGCCCGCGGCGGCGCACGCCCGGAGTCACCTAGTGCAG | 12200 fluorescence intensity (a.u.)
TGCACCTATCATTAATTAATTATACATTTTCCTATATATACGGAGTCACCTAGTGCAG | 9200 fluorescence intensity (a.u.)
GGCGGGGTTAGGATTCCGGCGAGGAGGGGCGGCGGGCTCCCGGAGTCACCTAGTGCAG | 12500 fluorescence intensity (a.u.)
ACCACCGAAAACCGTAGTGACTCTCTCTCTCTCTCTCTCTCGGAGTCACCTAGTGCAG | 8590 fluorescence intensity (a.u.)
GACGAACGGTCAAACATTTTTAAAAAAGTCAACGGCGTTACGGAGTCACCTAGTGCAG | 15200 fluorescence intensity (a.u.)
ACCAGTGGGCCCCACACACCCTTTCTACTCGCAGCTACTGCGGAGTCACCTAGTGCAG | 9100 fluorescence intensity (a.u.)
CTTTTCCATTTCCATGCATTCTTTGATCATCAAGTGATCACGGAGTCACCTAGTGCAG | 12100 fluorescence intensity (a.u.)
AAAGCCACCGTCCTCTACGATATCGCCCAAAAACCTGCCACGGAGTCACCTAGTGCAG | 9000 fluorescence intensity (a.u.)

Copied from the listing for reference:
Sequence | binding signal
GACGAACGGTCAAACATTTTTAAAAAAGTCAACGGCGTTACGGAGTCACCTAGTGCAG | 15200 fluorescence intensity (a.u.)
ACCAGTGGGCCCCACACACCCTTTCTACTCGCAGCTACTGCGGAGTCACCTAGTGCAG | 9100 fluorescence intensity (a.u.)
CTTTTCCATTTCCATGCATTCTTTGATCATCAAGTGATCACGGAGTCACCTAGTGCAG | 12100 fluorescence intensity (a.u.)
AAAGCCACCGTCCTCTACGATATCGCCCAAAAACCTGCCACGGAGTCACCTAGTGCAG | 9000 fluorescence intensity (a.u.)
